Source: patent US8658611B2, “Apoptosis-inducing agent for prostate cancer cells” (priority 2005, dated 2014)
At least one compound was matched to its structure with a doubt left.

Tested on: Bax
Test: Mitochondrial translocation of Bax (immunostaining, Western blot of cytoplasm and mitochondria)
Format: cell-based, human
Details: PC3; Ad-REIC 10 MOI

SMILES: Oc1c2ccccc2c2c3c(cccc13)N=N2 [SP600125]
- inhibition of Ad-REIC-induced mitochondrial translocation of Bax: suppressed
